Measured values taken from US20220372138A1.
Numbering of substitutions follows the chain as printed. Results are given in words; binding and its absence hold for the method and conditions named. Some results given as binding are weak or reduced against the parent protein; the word gives no strength. Each block holds one binder with its values, some of them ahead of it.

By UniProt entry, the sequences of proteins in these tests, tags left out. Where a name states a change or a piece, a line headed by the entry shows the natural chain unless it says otherwise.
UniProt Q5DX21: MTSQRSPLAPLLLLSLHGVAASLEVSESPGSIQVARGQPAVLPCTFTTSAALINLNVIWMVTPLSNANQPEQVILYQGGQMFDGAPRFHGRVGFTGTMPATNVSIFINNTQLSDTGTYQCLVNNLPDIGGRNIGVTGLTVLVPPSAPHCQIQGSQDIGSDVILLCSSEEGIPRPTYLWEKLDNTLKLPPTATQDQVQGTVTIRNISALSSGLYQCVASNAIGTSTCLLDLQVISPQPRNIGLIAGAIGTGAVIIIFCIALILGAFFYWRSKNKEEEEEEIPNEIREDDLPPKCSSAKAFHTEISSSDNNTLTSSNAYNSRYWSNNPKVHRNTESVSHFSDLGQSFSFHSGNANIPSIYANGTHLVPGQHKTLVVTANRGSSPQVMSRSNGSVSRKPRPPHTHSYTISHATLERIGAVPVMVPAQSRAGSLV

Columns and labels:
[1] = molecular target: human IGSF11 (VSIG3) ECD, His-tagged (human) (UniProt Q5DX21); assay: blocking ELISA: VSIR-Fc immobilised, IgG dilution series pre-incubated with 200 nM IGSF11 ECD-His, bound IGSF11 detected with anti-His-HRP
[2] = molecular target: human IGSF11 (VSIG3) ECD, His-tagged (human) (UniProt Q5DX21); assay: IgG1 ELISA EC50 <0.02 nM
[3] = molecular target: human IGSF11 (VSIG3) ECD, His-tagged (human) (UniProt Q5DX21); assay: ELISA: IGSF11-HIS coated, IgG1 dilution series, anti-human antibody-HRP, TMB
Streptavidin = Streptavidin (UniProt P22629); assay: scFv ELISA
[4] = molecular target: human IGSF11 (VSIG3) expressed on cells (human) (UniProt Q5DX21); assay: FACS 35-50% cells

B4: B-001 (chain-swapped IgG1) (antibody, V domains shown)
VH: EVQLLESGGGLIQPGGSLRLSCAVSGFTVSSNYMSWVRQAPGKGLEWVSVIYSGGSTYYADSVKGRFTISRDNSKNTLYLQMNSLRAEDTAVYYCARGNPYYYGDLQVNFDYWGQGTLVTVSS
VL: QAVVTQEPSLTVSPGGTVTLTCASSTGAVTSAYYPNWFQQKPGQAPRALIYSTSNKHSWTPARFSGSLLGGKAALTLSGVQPEDEADYYCLLYYGGAWVFGGGTKLTVL
binding [1]: binds | binding [2]: binds | binding [3]: binds

B6: A-005 (scFv format) (scFv, V domains shown)
VH: B4 VH with L5V, V24A
VL: B4 VL with G16E, A32G, K41R, H57D, D87E
binding (Streptavidin): no binding (tested: <0.025 or <0.05 RFU) | binding [4]: binds

B7: A-006 (scFv format) (scFv, V domains shown)
VH: B4 VH with L5V, V24A
VL: B4 VL with A32G, A48P, E83D, D87E, A97D
binding (Streptavidin): no binding (tested: <0.025 or <0.05 RFU) | binding [4]: binds

B11: A-008 (scFv format) (scFv, V domains shown)
VH: QLQLQESGPGLVKPSETLSLTCTVSGGSISSSGYYWGWIRQPPGKGLEWIGSIYYSGSTYYNPSLKSRVTISVDTSKNQFSLKLSSVTAADTAVYYCARHRVRFGEFDAFDIWGQGTMVTVSS
VL: QAVLTQPPSVSGAPGERVTLSCTGTSSNVGADFDVHWYQQFPGTAPRLLIFGSDNRPSGVPDRFSGSKSGTSASLAITGLQVEDEADYYCQAYDVRLSGWVFGGGTKLTVL
binding (Streptavidin): no binding (tested: <0.025 or <0.05 RFU) | binding [4]: binds

B12: A-010 (scFv format) (scFv, V domains shown)
VH: QVQLVQSGAEVKKPGASVKVSCKASGYTFTSYGISWVRQAPGQGLEWMGWISAYNGNTNYAQKLQGRVTMTTDTSTSTAYMELRSLRSDDTAVYYCARVPAWSGQFDYWGQGTLVTVSS
VL: QSALTQPASVSGSPGQSITISCTGSSSDVGGYNYVSWYQQYPGKAPKLMIYDVRSRPSGVSNRFSGSKSGNTASLTISGLQAEDEADYYCTSYTSSNTLVIFGGGTKVTVL
binding (Streptavidin): no binding (tested: <0.025 or <0.05 RFU) | binding [4]: binds

Other lines, results leading:

binding [1]: binds | binding [2]: binds | binding [3]: binds
B1: B-002 (chain-swapped IgG1) (antibody, V domains shown)
VH: B4 VH with L5V, V24A
VL: B4 VL with A32G, D87E

binding [1]: binds | binding [2]: binds | binding [3]: binds
B2: B-004 (chain-swapped IgG1) (antibody, V domains shown)
VH: B4 VH
VL: B4 VL with A32G, A48P, E83D, D87E, A97D

binding [1]: binds | binding [2]: binds | binding [3]: binds
B3: B-003 (chain-swapped IgG1) (antibody, V domains shown)
VH: B4 VH
VL: B4 VL with G16E, A32G, K41R, H57D, D87E

binding [1]: binds | binding [2]: binds | binding [3]: binds
B5: B-008 (chain-swapped IgG1) (antibody, V domains shown)
VH: B4 VH with L5V, V24A
VL: B4 VL with L20P, A23G, A32G, Y33N, Y34L, F64I, D87E

binding [1]: binds | binding [2]: binds | binding [3]: binds
B8: B-006 (chain-swapped IgG1) (antibody, V domains shown)
VH: B4 VH with L5V, V24A
VL: B4 VL with G16E, A32G, K41R, H57D, D87E

binding [1]: binds | binding [2]: binds | binding [3]: binds
B9: B-007 (chain-swapped IgG1) (antibody, V domains shown)
VH: B4 VH with L5V, V24A
VL: B4 VL

binding [1]: binds | binding [2]: binds | binding [3]: binds
B10: B-005 (chain-swapped IgG1) (antibody, V domains shown)
VH: B4 VH
VL: B4 VL with L20P, A23G, A32G, Y33N, Y34L, F64I, D87E
